Results are given in words; binding and its absence hold for the method and conditions named. Some entries that bind do so weakly or less than the wild type.
What was measured:
[1] = target: T1, preformed Mis16–Mis19 dimer (full-length Mis19) (S. pombe) (UniProt O94244+O42995); test: pull-down; competition: preformed Mis16–Mis18–Mis19 complex (Strep-tagged) pulled down without or with peptides from the Mis19 N terminus; both purified
[2] = target: T1, preformed Mis16–Mis19 dimer (full-length Mis19) (S. pombe); test: SEC; competition: preformed Mis16–Mis18–Mis19 complex challenged with peptides from the Mis19 N terminus; dissociation seen as separate Mis16–19 and Mis18 peaks; both purified
[3] = target: Mis16–Mis19^27–112 complex (S. pombe) (UniProt O94244+O42995); test: pull-down; purified proteins or complexes; streptavidin–agarose beads; 25 mM Tris–HCl pH 7.5, 500 mM NaCl, 5% glycerol, 1 mM TCEP; 4°C, at least 1 h; tagged bait 10–20 μM, untagged targets in twofold to fivefold molar excess; eluted with desthiobiotin; SDS–PAGE; both purified

Chains of the proteins cited; added tags and fusions are not shown. Lines headed by an entry give the natural chain unless they say otherwise; changes in a name come on top.
UniProt O42995: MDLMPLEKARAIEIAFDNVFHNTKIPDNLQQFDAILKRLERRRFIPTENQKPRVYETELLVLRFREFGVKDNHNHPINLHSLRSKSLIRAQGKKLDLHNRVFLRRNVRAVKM

binding [1]: binds
binding [2]: binds
binding [3]: binds
B1: Mis18 (S. pombe) (protein, UniProt Q9P802 1-194)
chain: MSQTETSHSGYIDFKKESQPSVFQCKKCFQIVGDSNAWVISHREYLSFTLSDAVENSVRVEDTFKRSDDGLCVYSELSCTRCNEVIGKVYNSTPIYLDDIRDMYTFSMDKLQAYQLGNKTVNPEGLTRYQVDLEMREDIIKLKSFCLSLYEKFELHDETLRSVKETISSLKKPKIEGKEGKKEKARTYSKRTRK

Source: publication PMC6677171, “Subunit interactions and arrangements in the fission yeast Mis16–Mis18–Mis19 complex” (Life Science Alliance, 2019)
